Assay results taken from article PMC7604923.
No constants are given. Whether binding was seen depends on the method and setting. In cells and extracts the contact can be indirect. Some results given as binding are weak or reduced against the parent protein; the word gives no strength.

Protein sequences, listed by entry. Tags and fused reporters are not part of them.
UniProt P70227: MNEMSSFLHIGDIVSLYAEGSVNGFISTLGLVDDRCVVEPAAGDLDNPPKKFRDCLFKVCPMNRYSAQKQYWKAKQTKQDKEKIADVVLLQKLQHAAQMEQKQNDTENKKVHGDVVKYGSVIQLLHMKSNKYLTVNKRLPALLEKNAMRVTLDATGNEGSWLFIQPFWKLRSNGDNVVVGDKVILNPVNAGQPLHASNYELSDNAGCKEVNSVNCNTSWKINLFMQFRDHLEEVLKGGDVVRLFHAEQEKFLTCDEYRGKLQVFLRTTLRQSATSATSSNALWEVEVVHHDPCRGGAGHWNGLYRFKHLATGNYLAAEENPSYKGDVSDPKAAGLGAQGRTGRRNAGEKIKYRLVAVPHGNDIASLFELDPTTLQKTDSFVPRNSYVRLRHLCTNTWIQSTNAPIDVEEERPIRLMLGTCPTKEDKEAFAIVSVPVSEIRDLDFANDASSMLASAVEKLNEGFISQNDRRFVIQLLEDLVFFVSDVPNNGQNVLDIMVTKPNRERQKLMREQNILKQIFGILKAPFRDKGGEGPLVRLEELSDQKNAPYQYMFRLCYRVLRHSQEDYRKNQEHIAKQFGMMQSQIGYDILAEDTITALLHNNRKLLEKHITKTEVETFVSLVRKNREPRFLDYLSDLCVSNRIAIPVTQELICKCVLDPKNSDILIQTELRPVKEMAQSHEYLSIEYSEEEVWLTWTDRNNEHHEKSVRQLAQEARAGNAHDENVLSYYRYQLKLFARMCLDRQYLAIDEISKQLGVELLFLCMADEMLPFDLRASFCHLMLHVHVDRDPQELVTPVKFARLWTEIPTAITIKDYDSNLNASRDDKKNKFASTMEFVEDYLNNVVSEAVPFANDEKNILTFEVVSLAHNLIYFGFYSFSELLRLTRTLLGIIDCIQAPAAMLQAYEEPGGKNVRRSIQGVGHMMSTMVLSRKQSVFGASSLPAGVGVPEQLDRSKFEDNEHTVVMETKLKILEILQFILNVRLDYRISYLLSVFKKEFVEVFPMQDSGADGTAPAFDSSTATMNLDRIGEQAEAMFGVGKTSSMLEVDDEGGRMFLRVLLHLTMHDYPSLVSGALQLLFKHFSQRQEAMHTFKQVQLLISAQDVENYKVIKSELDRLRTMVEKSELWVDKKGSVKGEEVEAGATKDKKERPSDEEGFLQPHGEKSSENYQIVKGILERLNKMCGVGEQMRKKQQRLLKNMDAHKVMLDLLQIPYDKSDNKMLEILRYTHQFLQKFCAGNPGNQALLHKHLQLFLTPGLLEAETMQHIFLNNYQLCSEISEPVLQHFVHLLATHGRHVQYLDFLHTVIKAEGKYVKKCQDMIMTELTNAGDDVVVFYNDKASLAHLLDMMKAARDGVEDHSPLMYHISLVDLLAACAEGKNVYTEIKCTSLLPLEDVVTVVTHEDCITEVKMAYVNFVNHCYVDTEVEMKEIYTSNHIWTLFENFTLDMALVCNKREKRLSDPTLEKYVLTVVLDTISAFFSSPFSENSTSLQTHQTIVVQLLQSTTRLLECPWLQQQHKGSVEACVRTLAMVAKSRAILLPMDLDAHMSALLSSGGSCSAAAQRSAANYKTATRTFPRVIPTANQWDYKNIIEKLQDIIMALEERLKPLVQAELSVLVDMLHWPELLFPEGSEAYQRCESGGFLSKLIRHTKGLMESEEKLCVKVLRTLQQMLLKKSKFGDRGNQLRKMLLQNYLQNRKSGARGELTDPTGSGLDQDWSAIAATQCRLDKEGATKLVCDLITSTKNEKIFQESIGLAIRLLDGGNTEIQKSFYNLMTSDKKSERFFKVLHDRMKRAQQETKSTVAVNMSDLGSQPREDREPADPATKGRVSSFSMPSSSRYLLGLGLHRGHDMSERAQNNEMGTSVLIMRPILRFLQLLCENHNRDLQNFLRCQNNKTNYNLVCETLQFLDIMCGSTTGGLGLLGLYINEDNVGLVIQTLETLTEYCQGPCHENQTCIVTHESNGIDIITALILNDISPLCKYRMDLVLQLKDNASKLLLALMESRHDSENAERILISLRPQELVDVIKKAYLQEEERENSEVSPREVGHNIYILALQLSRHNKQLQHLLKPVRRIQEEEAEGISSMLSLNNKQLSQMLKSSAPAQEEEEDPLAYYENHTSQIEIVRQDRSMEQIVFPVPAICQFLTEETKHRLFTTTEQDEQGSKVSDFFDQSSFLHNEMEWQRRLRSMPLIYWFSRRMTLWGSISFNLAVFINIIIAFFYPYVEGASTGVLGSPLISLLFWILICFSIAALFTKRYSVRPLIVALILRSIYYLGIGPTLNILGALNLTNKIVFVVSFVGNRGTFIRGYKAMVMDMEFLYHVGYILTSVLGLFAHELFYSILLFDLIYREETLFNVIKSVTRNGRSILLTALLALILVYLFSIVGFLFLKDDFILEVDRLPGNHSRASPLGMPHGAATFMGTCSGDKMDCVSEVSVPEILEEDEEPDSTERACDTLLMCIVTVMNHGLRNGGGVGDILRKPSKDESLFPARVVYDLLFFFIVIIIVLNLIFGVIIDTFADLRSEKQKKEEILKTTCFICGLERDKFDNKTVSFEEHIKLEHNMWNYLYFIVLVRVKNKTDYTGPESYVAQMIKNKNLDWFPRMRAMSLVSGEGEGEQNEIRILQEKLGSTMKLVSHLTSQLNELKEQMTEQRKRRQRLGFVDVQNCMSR
UniProt Q9D4H1: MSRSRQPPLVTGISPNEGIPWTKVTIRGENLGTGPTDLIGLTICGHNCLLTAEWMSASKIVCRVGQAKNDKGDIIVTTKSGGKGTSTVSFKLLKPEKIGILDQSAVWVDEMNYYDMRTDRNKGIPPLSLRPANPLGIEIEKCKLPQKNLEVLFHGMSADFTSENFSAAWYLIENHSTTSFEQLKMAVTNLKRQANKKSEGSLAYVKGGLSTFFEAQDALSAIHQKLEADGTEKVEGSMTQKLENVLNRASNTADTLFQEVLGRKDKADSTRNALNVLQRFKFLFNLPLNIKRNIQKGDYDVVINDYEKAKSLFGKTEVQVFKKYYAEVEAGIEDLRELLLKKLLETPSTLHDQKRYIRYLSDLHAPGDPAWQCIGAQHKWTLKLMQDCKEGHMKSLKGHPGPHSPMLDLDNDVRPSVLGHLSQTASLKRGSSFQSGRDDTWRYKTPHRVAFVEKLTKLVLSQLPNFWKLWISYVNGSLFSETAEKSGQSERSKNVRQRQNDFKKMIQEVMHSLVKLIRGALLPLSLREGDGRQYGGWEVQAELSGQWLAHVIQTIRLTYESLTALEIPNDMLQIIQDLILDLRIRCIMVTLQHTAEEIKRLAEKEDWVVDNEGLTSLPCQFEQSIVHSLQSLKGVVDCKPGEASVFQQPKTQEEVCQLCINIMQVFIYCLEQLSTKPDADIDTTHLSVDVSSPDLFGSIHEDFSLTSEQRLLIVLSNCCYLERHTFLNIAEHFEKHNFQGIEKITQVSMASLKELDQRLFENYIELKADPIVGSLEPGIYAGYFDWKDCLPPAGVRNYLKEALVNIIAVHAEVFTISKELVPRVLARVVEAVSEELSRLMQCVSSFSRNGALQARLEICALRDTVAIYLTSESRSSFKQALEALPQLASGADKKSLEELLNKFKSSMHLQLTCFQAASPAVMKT

Biological target: InsP3R3 (mouse (endogenous in RAW264.7)) (UniProt P70227)
Test: co-IP; RAW264.7 cell lysates immunoprecipitated with control rabbit IgG, anti-SEC5 or anti-InsP3R3 antibody; western blotting

binding: binds
Substance: SEC5 (from UniProt Q9D4H1 1-924)
